# Test results published in PMC10329682.
# The chains behind the UniProt entries cited, without tags or fusion partners. Where a name states a change or a piece, a line headed by the entry shows the natural chain unless it says otherwise.
# UniProt Q16763: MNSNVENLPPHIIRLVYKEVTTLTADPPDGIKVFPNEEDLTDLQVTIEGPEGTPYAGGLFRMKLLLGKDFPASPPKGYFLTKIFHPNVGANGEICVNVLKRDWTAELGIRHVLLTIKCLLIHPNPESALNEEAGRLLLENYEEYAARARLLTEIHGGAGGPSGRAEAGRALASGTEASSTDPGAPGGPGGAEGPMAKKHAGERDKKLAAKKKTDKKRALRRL
# UniProt P19474: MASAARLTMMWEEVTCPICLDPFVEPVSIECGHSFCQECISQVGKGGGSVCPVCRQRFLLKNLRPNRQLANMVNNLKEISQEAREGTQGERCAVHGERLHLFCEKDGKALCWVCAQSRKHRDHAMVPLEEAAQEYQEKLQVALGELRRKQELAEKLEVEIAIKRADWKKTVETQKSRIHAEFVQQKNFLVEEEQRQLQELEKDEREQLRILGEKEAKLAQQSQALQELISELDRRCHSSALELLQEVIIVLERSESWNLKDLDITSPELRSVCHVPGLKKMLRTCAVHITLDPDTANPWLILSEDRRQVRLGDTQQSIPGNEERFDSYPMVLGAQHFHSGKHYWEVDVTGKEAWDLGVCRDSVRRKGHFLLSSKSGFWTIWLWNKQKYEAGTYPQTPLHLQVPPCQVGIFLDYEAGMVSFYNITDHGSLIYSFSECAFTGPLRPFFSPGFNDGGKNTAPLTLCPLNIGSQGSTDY
# These are yes or no findings as the source states them, for the method shown. Binding seen in cells or lysates may run through a third protein. Some results given as binding are weak or reduced against the parent protein; the word gives no strength.
# Target: Ubiquitin-conjugating enzyme E2S (human (endogenous in T24 and UM-UC-3)) (UniProt Q16763)
# Assay: co-IP; endogenous proteins in lysates of wild-type T24 and UM-UC-3 cells; 2 ug of the corresponding antibody overnight at 4 C, Protein A/G magnetic beads 2 h at room temperature, western blot
substance,measurement,value
tripartite motif containing 21 (from UniProt P19474 1-475) (enzyme),binding,binds
